From paper PMC7150497
For at least one entry, the source does not settle the construct or the ends of the probe. Results from cells or extracts need not show a direct contact. No signal at the amounts used counts as a negative. At least one verdict rests on a figure or table, not on a statement of the authors.

Sequences of proteins named here, by UniProt entry; tags and fusion partners are left off. A change or cut given only in a name is not applied to a line headed by its entry.
UniProt P15941: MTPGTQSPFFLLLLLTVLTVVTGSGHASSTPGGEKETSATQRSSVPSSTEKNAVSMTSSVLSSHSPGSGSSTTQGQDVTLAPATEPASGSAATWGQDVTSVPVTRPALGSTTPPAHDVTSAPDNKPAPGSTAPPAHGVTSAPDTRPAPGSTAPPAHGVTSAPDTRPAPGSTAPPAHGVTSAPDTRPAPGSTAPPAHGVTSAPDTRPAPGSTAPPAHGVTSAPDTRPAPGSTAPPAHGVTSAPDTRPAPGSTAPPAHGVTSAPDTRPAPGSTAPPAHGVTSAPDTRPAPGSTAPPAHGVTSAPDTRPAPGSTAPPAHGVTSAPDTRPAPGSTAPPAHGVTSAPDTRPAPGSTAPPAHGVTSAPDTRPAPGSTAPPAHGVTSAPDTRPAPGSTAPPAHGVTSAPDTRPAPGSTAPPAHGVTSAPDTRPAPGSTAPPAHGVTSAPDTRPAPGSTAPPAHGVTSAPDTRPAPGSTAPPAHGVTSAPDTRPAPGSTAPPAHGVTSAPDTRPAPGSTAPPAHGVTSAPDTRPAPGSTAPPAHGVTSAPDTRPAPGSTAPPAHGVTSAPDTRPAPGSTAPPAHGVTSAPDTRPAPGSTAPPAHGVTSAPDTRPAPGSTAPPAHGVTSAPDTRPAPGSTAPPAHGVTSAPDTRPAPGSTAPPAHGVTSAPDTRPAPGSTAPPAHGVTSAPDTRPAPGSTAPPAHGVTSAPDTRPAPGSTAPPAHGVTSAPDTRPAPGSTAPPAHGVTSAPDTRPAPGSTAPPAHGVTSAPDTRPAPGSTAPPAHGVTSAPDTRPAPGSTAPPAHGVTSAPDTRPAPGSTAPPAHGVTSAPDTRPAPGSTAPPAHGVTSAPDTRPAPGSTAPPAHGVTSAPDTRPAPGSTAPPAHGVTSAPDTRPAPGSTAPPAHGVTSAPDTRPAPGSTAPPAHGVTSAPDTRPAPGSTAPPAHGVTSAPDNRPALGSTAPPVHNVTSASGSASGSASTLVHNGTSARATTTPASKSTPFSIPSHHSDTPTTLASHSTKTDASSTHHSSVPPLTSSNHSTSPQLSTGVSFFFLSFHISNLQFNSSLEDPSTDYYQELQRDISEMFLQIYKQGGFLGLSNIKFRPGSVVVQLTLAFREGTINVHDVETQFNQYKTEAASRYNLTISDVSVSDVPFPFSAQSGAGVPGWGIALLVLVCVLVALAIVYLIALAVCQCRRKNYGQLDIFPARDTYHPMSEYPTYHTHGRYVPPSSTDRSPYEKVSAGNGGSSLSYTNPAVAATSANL

Biological target: MUC1 (mucin 1) (human) (UniProt P15941)
Assay: confocal fluorescence cell binding
Conditions: DMEM with 1 mg/mL BSA, 10% FBS, 4.5 g/L glucose, 150 nM aptamer, 60 min, 37 °C, cells pretreated with 100 uM chlorpromazine, aptamer folded in 1x PBS pH 7.4, protein on the cell surface

**Q.** Does “GCAGTTGATCCTTTGGATACCCTGGACCTCACGACCATTCTGC / CTAACAATTATCACTGGGTCGTGAGGT / GTACGGCAGAATCAGTGATAATTGTTAGAAGAAAAAAAAATCCCAACCCGCCCTACCCTA [DNA ternary complex (Apt-Pri/Ass-Pri/Loop)]” bind (5 mM MgCl2, cells before polymerase addition, Loop strand circularized, label: 5'-Cy5 on Apt-Pri)?
**A.** Result: binds

**Q.** Does “ATCTGTATTCATGTATTCTTGTATTACCTCACGACCATTCTGC [mApt-Pri (mismatched Apt-Pri, random aptamer section)]” bind (5 mM MgCl2, cells, label: 5'-Cy5, single-stranded DNA)?
**A.** Result: no binding

**Q.** Does “GCAGTTGATCCTTTGGATACCCTGGACCTCACGACCATTCTGC [Apt-Pri (MUC1 aptamer-primer)]” bind (5 mM MgCl2, MCF-7, HeLa, A549 cells, signal follows MUC1 level, label: 5'-Cy5, single-stranded DNA)?
**A.** Result: binds
